“And” between values parts separate entries of the source, which are not always exact repeats. Equal entries are not always repeated. The list shows a part of the results. These are further read-outs of the screen, such as a control signal, another cell line or another target. No call is given for them. Compounds called inactive in the main read-out are mostly missing here. The note in brackets gives the kind of curve behind each potency; many fits are weak.

Consider 57 compounds from PubChem BioAssay AID2685 (National Center for Advancing Translational Sciences (NCATS), 2010).

A short description of this assay: qHTS Assay for Lipid Storage Modulators in Drosophila S3 Cells.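 As to cell number change: cells counted by Cell Tracker Red CMTPX staining in the red channel.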 The conditions noted are these: BODIPY lipid droplet fluorescence, 18-24 h; for cell number change: measured here: cell count max response, cells fed with added oleic acid. The procedure, abridged: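 Drosophila S3 cells loaded with oleic acid (400 uM, as added) and compounds at several concentrations; lipid droplets imaged by 488-nm laser-scanning cytometry, 500–530 nm intensity and object ratio to cell channel. Percent activity normalized to 20 uM Triacsin C.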
For orientation: qHTS replaces the single test concentration by a dilution series.

Where [1] appears, read: measured here: cell number channel AC50, cells fed with added oleic acid.
Where [2] appears, read: measured here: lipid fluorescence (Fed channel) AC50, cells fed with added oleic acid.

For `O=C(NCc1ccc2c(c1)OCO2)C1CC(c2cccc(Br)c2)=NO1` (centres undefined), the cell number change was -17.2%.

For `Cc1nc(-c2cnn(-c3ccccc3)c2)c2cc(C)oc2n1`, the AC50 (commonly the midpoint of the concentration-response curve, whichever way the signal moves) is 0.411 µM [rising, full curve] under setting [1] and 0.326 µM [rising, full curve] under setting [2].

`O=C(NNC(=O)c1cc2cc3ccccc3nc2s1)c1cccc(C(F)(F)F)c1`: the cell number change turned out to be 5.46%. In addition, the AC50 under setting [2] was 29.1 µM [rising, single point].

For `O=S(=O)(NCC(c1ccco1)N1CCN(c2ccccc2F)CC1)c1ccc2c(c1)OCCO2` (centres undefined), the AC50 under setting [2] is 8.2 µM [falling, full curve].

Consider `CCc1c(C(=O)N2CCOCC2)csc1C`, for which the cell number change is -13.9%. The half-maximal activity concentration (AC50) under setting [2] was 1.16 µM [falling, full curve, poor fit].

For `Cc1nn(CC(=O)OC(C)C(=O)Nc2ccccc2[N+](=O)[O-])c(C)c1[N+](=O)[O-]` (centres undefined), the cell number change stood at 11.8%. Also, the AC50 under setting [2] was 0.517 µM [rising, full curve, poor fit].

With `COCCNC(=O)/C(C#N)=C/c1cccc(NC(=O)c2ccccc2Cl)c1`, the cell number change was -23.8%.

`O=C(COC(=O)C1CCN(S(=O)(=O)c2cccc3cccnc23)CC1)c1ccc([N+](=O)[O-])cc1`: the cell number change is -50.5%. Further, the AC50 under setting [1] is 18.4 µM [falling, partial curve].

In the case of `Cn1c(N)c(C(=O)COC(=O)CCC2CCCC2)c(=O)n(C)c1=O`, the cell number change was found to be 13.8%. Moreover, the AC50 under setting [2] was 0.651 µM [rising, single point].

As for `Cn1c(Sc2ccc(Br)cc2)c(C=O)c2ccccc21`, the cell number change was -16.5%. Moreover, the AC50 under setting [1] is 2.31 µM [falling, partial curve]. For the same compound, under setting [2], the AC50 is 5.17 µM [falling, partial curve].

Take `CC(C)(C)NC(=O)CN(C(=O)C1CSC(=O)C1)c1ccccc1F` (centres undefined): the cell number change worked out at 12.4%. For the same compound, under setting [1], the AC50 is 0.731 µM [rising, single point].

In the case of `CCOc1ccc(N(CC(=O)N2CC=C(c3ccccc3)CC2)S(=O)(=O)c2c(C)noc2C)cc1`, the cell number change turned out to be 26.7%. Further, the AC50 under setting [2] is 11.6 µM [rising, single point].

For the compound `O=C(CC1SC(=O)N(c2ccccc2)C1=O)Nc1ccccc1` (centres undefined), the cell number change is -15.8%. For the same compound, under setting [2], the AC50 was 0.082 µM [falling, full curve, poor fit].

With `Cc1ccc(-n2c(C)nc3c(cnn3-c3ccccc3Cl)c2=O)cc1C`, the cell number change is -12.5%. In addition, the AC50 under setting [1] is 0.517 µM [falling, full curve].

Regarding `Cc1ccc(-c2csc(N3CCN(CCCn4c(-c5ccncc5)nc5ccccc54)CC3)n2)cc1`, the cell number change is -23%.

As to `O=C(N/N=C/c1ccc(OCC2COCCO2)cc1)c1ccc(Br)cc1` (centres undefined), the cell number change is 80.2%. Moreover, the AC50 under setting [1] was 0.0206 µM [rising, full curve, poor fit].

As to `CNc1nc(Nc2ccc([N+](=O)[O-])cc2)nc(OCC(F)(F)F)n1`, the cell number change came out at 6.22%. For the same compound, under setting [2], the AC50 is 0.184 µM [falling, full curve, poor fit].

For `CNC(=S)N/N=C1\CC(c2ccccc2)Oc2ccccc21` (centres undefined), the cell number change came to 28.5%. Moreover, the AC50 under setting [2] was 35.5 µM [rising, single point].

For `O=C(/C=C/c1cccc([N+](=O)[O-])c1)OCC(=O)c1ccccc1`, the cell number change was -4.78%. In addition, under setting [2], the AC50 was 4.11 µM [falling, partial curve].

Regarding `COc1ccccc1N1CCN(C(=O)c2cc(-c3ccc(Cl)cc3)on2)CC1`, the cell number change is 35%. Also, under setting [1], the AC50 is 11.6 µM [rising, partial curve, poor fit]. Further, the AC50 under setting [2] was 5.17 µM [rising, partial curve].

Consider `CS(=O)(=O)c1nc(-c2ccccc2)c(-c2ccccc2)[nH]1`, for which the cell number change stood at 31.9%. Moreover, the AC50 under setting [1] is 5.8 µM [rising, full curve, poor fit]. Moreover, the AC50 under setting [2] was 5.8 µM [rising, full curve].

As for `O=C(c1ccc(CS(=O)Cc2ccc(Cl)cc2)o1)N1CCN(c2ccccc2)CC1` (centres undefined), the cell number change was 49.7%. Moreover, under setting [1], the AC50 is 16.4 µM [rising, single point].

On to `COc1ccc(CNc2ccc([N+](=O)[O-])cc2C)cc1`, for which the cell number change was determined as 30%. In addition, under setting [2], the AC50 is 23.1 µM [rising, single point].

Regarding `COCc1nnc(SCC(=O)Nc2cccc(Cl)c2C)n1-c1ccccc1`, the cell number change was -1.82%. Besides, the AC50 under setting [2] was 0.651 µM [rising, single point].

Consider `c1cncc(-c2nc(NCCCn3ccnc3)c3ccccc3n2)c1`, for which the AC50 under setting [2] was 0.116 µM [rising, full curve, poor fit].

In the case of `O=C(Nc1nc2ccccc2s1)c1cc(-c2ccccc2)nn1-c1ccccc1`, the cell number change was 8.24%. The AC50 under setting [1] is 1.84 µM [rising, partial curve]. In addition, the AC50 under setting [2] was 2.06 µM [rising, partial curve].

Consider `CC/C(=N\NC(=O)c1cc(C)nc2ccccc12)c1ccc(C)s1`, for which the AC50 under setting [2] is 29.1 µM [rising, single point].

As for `CN1CCN(c2ccc(NC(=O)c3ccc(Cl)cc3Cl)cc2)CC1`, the cell number change was 15.2%. Further, under setting [2], the AC50 is 0.58 µM [rising, single point].

Take `O=C(Cn1[nH]c(=O)c2ccccc2c1=O)NC1CCCCCC1`: under setting [2], the AC50 was 2.91 µM [rising, partial curve].

Regarding `Cc1cnc(C(=O)OCC(=O)NCCCc2ccccc2)cn1`, under setting [2], the AC50 was 16.4 µM [falling, partial curve].

In the case of `CCN(C(C)=O)c1cccc2ccccc12`, the cell number change was -8.12%.

`CCCOc1cccc(C(=O)NC(=S)Nc2cccc(NC(=O)c3ccccc3Cl)c2)c1`: the cell number change was -22.2%. Besides, the AC50 under setting [2] is 6.51 µM [rising, single point].

As for `CCc1ccc(S(=O)(=O)N2c3ccc(C)cc3C3CN(C)CCC32)cc1` (centres undefined), the cell number change worked out at 3.94%. Moreover, the AC50 under setting [2] is 18.4 µM [falling, single point].

As to `O=C(CN1CCOCC1)Nc1ccccc1-c1ccccc1`, the cell number change stood at 24.9%. The AC50 under setting [1] is 0.146 µM [rising, full curve, poor fit].

On to `CN(CCC#N)S(=O)(=O)c1ccc2c(c1)c(=O)n(C)c(=O)n2C`, for which the cell number change was -3.91%. Further, the AC50 under setting [1] is 1.16 µM [falling, full curve].

For the compound `CC(C)(C)NC(=O)CN(CC1CCCO1)C(=O)CNS(=O)(=O)c1ccc(F)cc1` (centres undefined), the AC50 under setting [2] was 0.206 µM [falling, single point].

In the case of `Cc1cccc(C)c1NC(=O)c1ccc(-n2cnnn2)cc1`, the cell number change was -60.7%. Also, the AC50 under setting [1] is 3.66 µM [falling, partial curve, poor fit]. For the same compound, the AC50 under setting [2] is 0.092 µM [falling, full curve, poor fit].

As to `O=C(N/N=C/c1ccccn1)c1cc(-c2ccc3ccccc3c2)n[nH]1`, the cell number change was -69.2%. Also, the AC50 under setting [1] is 11.6 µM [falling, partial curve]. Under setting [2], the AC50 was 11.6 µM [falling, partial curve].

Turning to `CCN(CC(=O)Nc1ccc2c(c1)OCCO2)C(=O)c1ccc(Cl)cc1Cl`, the cell number change was 44%. Moreover, the AC50 under setting [1] is 23.1 µM [rising, single point]. Moreover, the AC50 under setting [2] was 20.6 µM [rising, single point].

For `CCOC(=O)CCNCc1ccc(F)cc1`, the cell number change was -13%. The AC50 under setting [2] is 29.1 µM [falling, single point].

With `CC(c1ccon1)N(C)C(=O)CCc1nnc(Cc2ccc(-c3ccccc3)cc2)o1` (centres undefined), the AC50 under setting [2] is 0.058 µM [rising, full curve, poor fit].

Regarding `N#C/C(=C/C=C/c1ccccc1)C(=O)Nc1ccccc1`, the cell number change was -6.54%.

Take `O=C(c1ccc(Oc2ccc([N+](=O)[O-])cc2Cl)cc1)N1CCCC1`: the AC50 is, setting by setting: under setting [1], 0.92 µM [rising, single point]; under setting [2], 1.16 µM [rising, single point].

Turning to `Cn1cc(CNC(=O)C2CCCCC2)cn1`, the cell number change is -11.7%. Besides, under setting [1], the AC50 is 6.51 µM [falling, single point]. Further, the AC50 under setting [2] is 6.51 µM [falling, single point].

With `O=c1c2ccccc2c(=O)n2n1Cc1ccccc1C2`, the cell number change was -3.67%. Besides, under setting [2], the AC50 was 6.51 µM [rising, single point].

Consider `Cc1ccsc1/C=N/NC(=O)Cc1ccc(Cl)cc1`, for which the cell number change worked out at 1.36%. Further, under setting [2], the AC50 is 9.2 µM [rising, single point].

Regarding `CCOc1ccc(Br)cc1C(=O)Nc1ccc(C(=O)NCC(C)C)cc1`, the cell number change was -57.1%. The AC50 under setting [1] is 13 µM [falling, partial curve]. Further, the AC50 under setting [2] is 20.6 µM [falling, single point].

With `CC(=O)c1ccc2c(c1)c(C#N)c1ccccc1[n+]2[O-]`, the cell number change was found to be 16.7%.

In the case of `CCOC(=O)Nc1nc(-c2ccccc2)c(C(=O)c2ccccc2)s1`, the cell number change was determined as 84.1%. In addition, the AC50 under setting [1] was 23.1 µM [rising, single point]. The AC50 under setting [2] is 29.1 µM [rising, single point].

Turning to `CCCCCCCCCCOC(=O)Cn1c(COc2ccc(OC)cc2)[n+](C)c2ccccc21`, the cell number change is -8.52% and 11.7%. For the same compound, under setting [1], the AC50 is 5.17 µM [falling, partial curve, poor fit]. Besides, under setting [2], the AC50 is 3.26 µM [falling, partial curve, poor fit].

Regarding `CC(=O)Nc1ccc2c(c1)nc(CCN1CCC(C)CC1)n2C`, the cell number change is -38.2%. In addition, the AC50 under setting [1] is 14.6 µM [falling, single point]. For the same compound, under setting [2], the AC50 was 23.1 µM [falling, partial curve].

For the compound `CCOC(=O)N1CCN(C(=O)CN(c2ccc(Oc3ccccc3)cc2)S(C)(=O)=O)CC1`, the cell number change was -7.73%. Moreover, the AC50 under setting [2] was 0.651 µM [rising, single point].

Turning to `Cc1cccc(OCC(=O)Nc2nc3ccc([N+](=O)[O-])cc3s2)c1`, the cell number change is -36.6%. Also, under setting [1], the AC50 was 8.2 µM [falling, partial curve, poor fit]. Besides, under setting [2], the AC50 was 13 µM [falling, single point].

Turning to `CCN1CCN(C(=O)CS(=O)(=O)Cc2nc(-c3cccc(OC)c3)oc2C)CC1`, the cell number change amounted to 12.8%.

Take `Cc1c(C(=O)N2CCCCC2)c(S(=O)(=O)N2CCC(C)CC2)c(C)n1C`: the cell number change was 28.1%. Besides, under setting [2], the AC50 is 0.116 µM [rising, full curve, poor fit].

In the case of `Cc1nc(C)c(-c2csc(Nc3ccccn3)n2)s1`, the cell number change is -31.7%. For the same compound, the AC50 under setting [1] is 3.26 µM [falling, full curve, poor fit].

On to `COc1ccc(N2CC(C(=O)Nc3ccc(S(=O)(=O)N4CCCC4)cc3)CC2=O)cc1` (centres undefined), for which the cell number change amounted to 2.63%. For the same compound, under setting [1], the AC50 is 1.16 µM [falling, partial curve]. The AC50 under setting [2] is 5.62 µM [rising, single point].
